Source: patent publication US8658416B2, “Toxin-eating bacteria and bioremediation” (priority 2008, dated 2014)
For at least one compound, name, drawing or mass did not settle the structure.

Tested on: clonal bacterial isolates from 11 diverse soils
Assay type: cell-based, soil bacteria
Conditions: antibiotic as sole carbon source at 1 g/L in SCS media pH 5.5, 22° C., positive growth at least 10^8 cells/mL
Experimental: The pH was adjusted to 5.5 using HCl, and the media was sterilized through a 0.22 μm filter. Solid medium was prepared by adding 15 g agar per liter of liquid SCS media followed by autoclaving before adding antibiotics.
Clonal isolates from the liquid cultures were obtained by plating cultures out on SCS-antibiotic agar medium and resulting single colonies were picked and re-streaked on corresponding plates. Three colonies each were then inoculated into fresh SCS-antibiotic liquid media (5 mL) to confirm clonal phenotype. Final culture growth was recorded after 1 month incubation without shaking at 22° C. and cultures with at least 10^8 cells/mL were assayed as positive growth.
All antibiotics used were purchased from Sigma-Aldrich at the highest purities available.

Question: With `C[C@H]1COc2c(N3CCN(C)CC3)c(F)cc3c(=O)c(C(=O)O)cn1c23` [levofloxacin, Levofloxacin] as the compound, how does the “soils from which clonal isolates capable of subsisting on the antibiotic were obtained” value read?
Answer: The value was “a majority of the soils”.
